Measurements: PMC3985620, “Stepwise assembly of multiple Lin28 proteins on the terminal loop of let-7 miRNA precursors”
Substitutions are numbered along the chain they refer to. For some of these results: Weaker means in comparison with the reference protein, sequence or condition of that experiment. Protein sequences can lack the tags named with them. For some of these results: For at least one entry, the source does not settle the construct or the ends of the probe.

Key:
[1] = target: T1, Lin28 (Lin28A) (Mus musculus (murine)) (UniProt Q8K3Y3); assay: EMSA (stoichiometric); conditions: 0.5 µM RNA, EMSA: 50 mM Tris pH 7.6, 50 mM NaCl, 10% glycerol, 0.05% NP-40 alternative, 2 mM DTT, 4°C, 2-AP: 50 mM Tris pH 7.6, 50 mM NaCl, recombinant protein, residues 1-209, label: 5'-32P
T1 sequence (looked up): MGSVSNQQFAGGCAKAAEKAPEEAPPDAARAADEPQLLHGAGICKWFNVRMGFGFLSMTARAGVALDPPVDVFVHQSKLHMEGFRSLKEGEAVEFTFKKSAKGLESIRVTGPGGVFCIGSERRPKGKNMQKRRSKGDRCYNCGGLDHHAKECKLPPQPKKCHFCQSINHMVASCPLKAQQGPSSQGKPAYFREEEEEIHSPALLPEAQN

[2] = target: T2, Lin28 C139A/C161A (Mus musculus (murine)) (UniProt Q8K3Y3); assay: EMSA (stoichiometric); conditions: 0.5 µM RNA, EMSA: 50 mM Tris pH 7.6, 50 mM NaCl, 10% glycerol, 0.05% NP-40 alternative, 2 mM DTT, 4°C, 2-AP: 50 mM Tris pH 7.6, 50 mM NaCl, recombinant protein, residues 1-209, label: 5'-32P
T2 sequence (looked up): T1 sequence (looked up) with C139A, C161A

[3] = target: T1, Lin28 (Lin28A) (Mus musculus (murine)); assay: EMSA; conditions: EMSA: 50 mM Tris pH 7.6, 50 mM NaCl, 10% glycerol, 0.05% NP-40 alternative, 2 mM DTT, 4°C, 2-AP: 50 mM Tris pH 7.6, 50 mM NaCl, recombinant protein, residues 1-209, label: 5'-32P
[4] = target: T3, Lin28 119-180 (Mus musculus (murine)) (UniProt Q8K3Y3); assay: EMSA (stoichiometric); conditions: 0.5 µM RNA, EMSA: 50 mM Tris pH 7.6, 50 mM NaCl, 10% glycerol, 0.05% NP-40 alternative, 2 mM DTT, 4°C, 2-AP: 50 mM Tris pH 7.6, 50 mM NaCl, recombinant protein, residues 119-180, label: 5'-32P
T3 sequence (looked up): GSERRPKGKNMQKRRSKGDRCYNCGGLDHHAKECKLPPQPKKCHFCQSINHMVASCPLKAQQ

GCAGAUGUCUAUGAUACCACCCGGUACAGGAGAUAUCUGCA [TL-let-7g Δbulge]
binding result [1]: binds more weakly
binding result [2]: binds more weakly

UGAGGGUC [TL6-13]
Kd ([3]; not detectable up to 5 µM protein): > 5 µM

GCAGAUUGAGGGUCUUGUACCACCCGGUACAAGAUAUCUGCA [TL-let-7g Δiloop]
binding result [4]: binds more weakly
binding result [2]: binds more weakly

AUUGACGCUCUAUA [TL5-18V]
Kd [3]: > 5 µM

GCAGAUUGAGGGUCUAUGAUACCACCCGGUACAGGAGAUAUCUGCA [TL-let-7g]
binding result [2]: binds more weakly
